One substance from paper PMC6721651 can be followed below.

Amino acid sequences for entries named in this document (tags omitted).
UniProt O15379: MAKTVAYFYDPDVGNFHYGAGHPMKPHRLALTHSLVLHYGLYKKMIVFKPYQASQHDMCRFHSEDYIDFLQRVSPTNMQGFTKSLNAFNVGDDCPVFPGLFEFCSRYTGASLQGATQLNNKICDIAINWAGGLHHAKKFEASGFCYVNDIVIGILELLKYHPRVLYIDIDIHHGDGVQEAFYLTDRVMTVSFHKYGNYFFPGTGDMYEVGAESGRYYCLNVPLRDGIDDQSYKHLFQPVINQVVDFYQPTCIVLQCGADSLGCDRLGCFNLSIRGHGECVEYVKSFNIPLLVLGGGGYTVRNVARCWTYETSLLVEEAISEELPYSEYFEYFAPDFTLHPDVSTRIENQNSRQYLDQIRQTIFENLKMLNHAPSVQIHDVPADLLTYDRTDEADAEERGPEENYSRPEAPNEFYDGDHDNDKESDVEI

This assay has as its target epidermal growth factor receptor (human (endogenous in MDA-MB-231)) (UniProt P00533). In words: co-IP; membrane protein fraction of MDA-MB-231 cells treated with EGF for 20 min; IP with the indicated antibodies and G plus/protein A-agarose beads, overnight at 4 °C; Western blot.

Results are given in words; binding and its absence hold for the method and conditions named. Binding seen in cells or lysates may run through a third protein. Some binding calls cover weakened binding; strength is not graded here.

As for “histone deacetylase 3 (from UniProt O15379 1-428) (enzyme)”, the binding result is given as “binds”.
